Reference: patent US6358687

By UniProt entry, the sequences of proteins in these tests, tags left out. Residues count along the entry.
UniProt P49312, 1-196: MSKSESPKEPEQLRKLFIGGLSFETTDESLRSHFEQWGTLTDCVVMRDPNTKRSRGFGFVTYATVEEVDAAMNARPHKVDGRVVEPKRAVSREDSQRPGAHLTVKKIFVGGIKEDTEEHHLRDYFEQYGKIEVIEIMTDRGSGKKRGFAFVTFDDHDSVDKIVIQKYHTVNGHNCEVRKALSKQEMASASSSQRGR

Columns and labels:
UP1 (hnRNP A1 fragment) = UP1 (hnRNP A1 fragment) (UniProt P49312); test: inhibition of the protein; conditions: purified recombinant protein, protein details: GST removed by thrombin, single-stranded DNA
[1] = target: GST-A1 (hnRNP A1) (Mus musculus) (UniProt P49312); test: footprint; conditions: protects telomeric DNA from DNase I; purified recombinant protein; protein details: GST; label: 5'-32P; single-stranded DNA
[2] = target: rA1 (hnRNP A1) (Mus musculus) (UniProt P49312); test: pull-down; conditions: TS10 column; ternary complex with hTR-A; purified recombinant protein; protein details: glutathione-Sepharose purified; label: 5'-32P; single-stranded DNA
[3] = target: GST-A1 (hnRNP A1) (Mus musculus) (UniProt P49312); test: inhibition of the protein; conditions: inhibits telomerase extension in HeLa S100; purified recombinant protein; protein details: GST; label: 5'-32P; single-stranded DNA
[4] = system: GST-UP1 delta2 (RRM2 deleted) RRM2 deleted (BglII fill-in); test: inhibition of the protein; conditions: does not prevent telomerase extension; purified recombinant protein; protein details: GST; label: 5'-32P; single-stranded DNA
[5] = 8 uM UP1 inhibits telomerase extension

Sequence | functional effect (UP1 (hnRNP A1 fragment); [5]) | functional effect [1] | binding result [2] | functional effect [3] | functional effect [4] | functional effect (UP1 (hnRNP A1 fragment); inhibits telomerase extension, also protects from DNase I, exonuclease I and Bal31, and represses TdT, label: 5'-32P)
AATCCGTCGAGCAGAGTT [TS] | active |  |  |  |  | 
AATCCGTCGAGTAGGGTT [TS1] | active |  |  |  |  | 
TTAGGGTTAGGGTTAGGGTTAGGGTTAGGGTTAGGGTTAGGGTTAGGGTTAGGGTTAGGG [TS10] |  | active | binds | active | not active | active

For some of these results: The exact form of at least one protein or probe is not confirmed. For some of these results: Negatives hold for the conditions tested.
